Results from the supplement of paper PMC9015667.
Counter-ions that a name gives are not always drawn. The list shows a part of the results. Repeats are few or missing, and single values can be far off.

What follows are compounds tested on UACC62R (matched melanoma line resistant to BRAF inhibitors) (assay: reduction in cell viability relative to untreated/vehicle; higher = more growth inhibition). Details: 200 nM; 72 h.
With `COc1cc(/C=C/C(=O)O)ccc1O` [Fumalic acid] the “reduction in cell viability” value was < 0%. `CS(=O)(=O)OCCCCOS(C)(=O)=O` [Busulfan] was tested, and the “reduction in cell viability” value was < 0%. `NCCS(=O)(=O)O` [l-Taurine] was tested, and the “reduction in cell viability” value was < 0%. With `CCN(CC)CCCCNc1nc2cc(Cl)c(Cl)cc2nc1-c1ccc(-c2cccs2)s1` the “reduction in cell viability” value was < 0%. In the case of `CCc1cccc(CC)c1NC(=O)N1Cc2[nH]nc(NC(=O)c3ccc(N4CCN(C)CC4)cc3)c2C1`, the “reduction in cell viability” value is reported as 34.1%. `N#CC1(c2ccc(NC(=O)c3cccnc3NCc3ccncc3)cc2)CCCC1` [Apatinib] was tested, and the “reduction in cell viability” value was < 0%. With `O=C(CCCN1CCC(O)(c2ccc(Cl)cc2)CC1)c1ccc(F)cc1` [Haloperidol] the “reduction in cell viability” value was < 0%. In the case of `Cc1ccc(NC(=O)c2ccc(CN3CCN(C)CC3)cc2)cc1Nc1nc(-c2cccnc2)cs1` [Masitinib], the “reduction in cell viability” value is reported as < 0%. With `CCCN[C@H]1CCc2nc(N)sc2C1` [Pramipexole hydrochloride] the “reduction in cell viability” value was < 0%. `CCCCCCCCCCCCCCCCCCCCCCO` [Docosanol] was tested, and the “reduction in cell viability” value was < 0%. With `C[C@@H]1CN(Cc2ccc(F)cc2)[C@@H](C)CN1C(=O)c1cc2c(C(=O)C(=O)N(C)C)cn(C)c2cc1Cl` [Talmapimod] the “reduction in cell viability” value was < 0%. In the case of `CO[C@@H]1[C@H](N(C)C(=O)c2ccccc2)C[C@H]2O[C@]1(C)n1c3ccccc3c3c4c(c5c6ccccc6n2c5c31)C(=O)NC4=O` [Stauprimide], the “reduction in cell viability” value is reported as < 0%. For `O=C(C[C@@H]1C/C=C/CCC(=O)O[C@H](c2ccccc2)CNC1=O)NCc1ccc(Cl)cc1` [Robotnikinin], the “reduction in cell viability” value was < 0%. For `CC(C)(Oc1ccc(C2CC2(Cl)Cl)cc1)C(=O)O` (stereo not given) [Ciprofibrate], the “reduction in cell viability” value was < 0%. `CC(NCCc1ccc(O)cc1)C(O)c1ccc(O)cc1` (stereo not given) [Ritodrine hydrochloride] was tested, and the “reduction in cell viability” value was < 0%. In the case of `O=C1CSC(=O)N1C(CCc1ccncc1)COc1ccc(-c2cccc([N+](=O)[O-])c2)cc1` (stereo not given), the “reduction in cell viability” value is reported as < 0%. For `CN(C)Cc1c(C(=O)NCCOc2ccc(C(=O)NO)cc2)oc2ccccc12` [Abexinostat], the “reduction in cell viability” value was 68.9%. For `CCCCN1CCC(CNC(=O)c2c3n(c4ccccc24)CCCO3)CC1` [Piboserod hydrochloride], the “reduction in cell viability” value was < 0%. For `CN1C2CCCC1CC(NC(=O)c1nn(C)c3ccccc13)C2` (stereo not given) [Granisetron hydrochloride], the “reduction in cell viability” value was < 0%. In the case of `O=C(c1ccc(F)cc1)C1CCN(CCn2c(=O)[nH]c3ccccc3c2=O)CC1` [Ketanserin], the “reduction in cell viability” value is reported as < 0%. For `NCc1c[nH]c(=S)n1[C@H]1CCc2c(F)cc(F)cc2C1` [Nepicastat hydrochloride], the “reduction in cell viability” value was < 0%. For `OCCC#Cc1nc(-c2ccc(F)cc2)c(-c2ccncc2)n1CCCc1ccccc1`, the “reduction in cell viability” value was < 0%. With `CC(C)n1nc(-c2ccc3oc(N)nc3c2)c2c(N)ncnc21` the “reduction in cell viability” value was 64.9%. For `Nc1nnc(-c2cccc(Cl)c2Cl)c(N)n1` [Lamotrigine], the “reduction in cell viability” value was < 0%. `Cn1cc(-c2cnn3c(N)c(Br)c([C@@H]4CCCNC4)nc23)cn1` was tested, and the “reduction in cell viability” value was 28.5%. With `CC(C)(C)c1nc(-c2cccc(NS(=O)(=O)c3c(F)cccc3F)c2F)c(-c2ccnc(N)n2)s1` [Dabrafenib] the “reduction in cell viability” value was 23.8%. `CCOc1ccn(-c2ccc(F)cc2)c(=O)c1C(=O)Nc1ccc(Oc2ccnc(N)c2Cl)c(F)c1` was tested, and the “reduction in cell viability” value was < 0%. With `Cc1nc2cnc3ccc(C#Cc4cccnc4)cc3c2n1-c1ccc(C(C)(C)C#N)cc1` the “reduction in cell viability” value was 45.5%. `O=C(O)[C@@H](c1ccc(OCc2ccc3ccccc3n2)cc1)C1CCCC1` [Veliflapon] was tested, and the “reduction in cell viability” value was < 0%. With `NC(=O)c1ncn([C@@H]2O[C@H](CO)[C@@H](O)[C@H]2O)c1O` [Mizoribine] the “reduction in cell viability” value was < 0%. In the case of `COc1cc2nccc(Oc3ccc(NC(=O)Nc4ccc(F)cc4F)c(F)c3)c2cc1OC`, the “reduction in cell viability” value is reported as < 0%. With `Cc1ccnc(NS(=O)(=O)c2ccc(NC(=O)Nc3ccc(S(=O)(=O)Nc4nccc(C)n4)cc3)cc2)n1` the “reduction in cell viability” value was 1.55%. For `Cc1c(OCC(F)(F)F)ccnc1C[S+]([O-])c1nc2ccccc2[nH]1` (stereo not given) [Lansoprazole], the “reduction in cell viability” value was < 0%. For `C[C@H]1C[C@H]2[C@@H]3CCC4=CC(=O)C=C[C@]4(C)[C@H]3C(=O)C[C@]2(C)[C@@]1(O)C(=O)CO` [Meprednisone], the “reduction in cell viability” value was < 0%. For `COc1ccc(-c2oc3cc(OC)ccc3c2C(=O)c2ccc(C#N)cc2)cc1`, the “reduction in cell viability” value was < 0%. `C[C@@H]1CCN(C(=O)CC#N)C[C@@H]1N(C)c1ncnc2[nH]ccc12` [Tofacitinib] was tested, and the “reduction in cell viability” value was < 0%. For `c1coc(CNc2ncnc3[nH]cnc23)c1` [Kinetin], the “reduction in cell viability” value was < 0%. For `Nc1ncnc2c1ncn2[C@@H]1O[C@H](CO)C[C@H]1O` [Cordycepin], the “reduction in cell viability” value was < 0%. `CCN(CC)C(=S)SSC(=S)N(CC)CC` [Disulfiram] was tested, and the “reduction in cell viability” value was < 0%. In the case of `COc1ccc2nc3cc(Cl)ccc3c(Nc3cc(CN4CCCC4)c(O)c(CN4CCCC4)c3)c2n1` [Pyronaridine], the “reduction in cell viability” value is reported as < 0%.
